At least one structure is not confirmed: it was looked up by name or label, or the drawing left a doubt.
Legend:
[1] = test system: mTEC-KO cells; experiment: Reversal of mesenchymal actin cytoskeleton, F-actin phalloidin staining; format: cell-based, mouse; settings: 100 pM TGF-β1 72 h, then inhibitor 24 h; 5 μM SB431542, 1 μM SB203580, 1 μM Y27632, 10 μM U0126, 15 μM SP600125
Method: Renal tubular epithelial cells (mTEC-KOs) were treated with 100 pm TGF-β1 for 72 hours and then kinase inhibitors were added for an additional 24 hours. The F-actin in the cells was visualized by staining with phalloidin. mTEC-KO cells were treated with a single kinase inhibitor (A-E) or with SB431542 plus a second kinase inhibitor (F-I). Single kinase inhibitors and concentrations were: 5 μM SB431542 (A), 1 μM SB203580 (B), 1 μM Y27632 (C), 10 μM U0126 (D), or 15 μM SP600125 (E). Combination kinase inhibitors included 5 μM SB431542 with 1 μM SB203580 (F), 1 μM Y27632 (G), 10 μM U0126 (H) or 15 μM SP600125 (I). […] White arrows point to stress fibers.
Cells were seeded on glass cover slips (Fisher) and cultured as described above. Cells were treated, fixed in 4% paraformaldehyde, and permeabilized in PBS containing 0.1% Triton X-100 for 10 min. Nonspecific sites were blocked with 10% BSA or normal goat serum for 30 min. F-actin was stained at a 1:1000 dilution in 2% BSA of Texas Red-conjugated phalloidin (Sigma) and incubated for 30 min. E-cadherin (BD Biosciences) was diluted at 1:200 in 2% normal goat serum and a secondary antibody (Molecular Probes) at a 1:500 dilution was used for detection. All washes were done in 1× PBS.
To examine the reversibility of the EMT induced by TGF-β1 in mTEC-KO cells, we added inhibitors of kinases previously implicated in EMT. […]

[2] = test system: E-cadherin; experiment: E-cadherin immunofluorescence at cell junctions after EMT; format: cell-based, mouse; settings: 100 pM TGF-β1 72 h, then inhibitors for an additional 36 hours; 5 μM SB431542, 5 μM SB203580, 5 μM Y27632, 15 μM SP600125
Method: FIG. 6: E-cadherin is restored by combining TβRI kinase inhibitor with either the ROCK inhibitor or the p38 MAPK inhibitor. E-cadherin is found between mTEC-KO cells (A). mTEC-KO cells were treated with 100 pM TGF-β1 for 72 hours to induce mesenchymal state in which E-cadherin is lost (B). Single inhibitors or combinations of two inhibitors were added for an additional 36 hours. […] E-cadherin reformed between cells that used combination kinase inhibitors which included 5 μM SB431542 with 5 μM SB203580 (G), 5 μM Y27632 (H), but not 15 μM SP600125 (I). Cell lysates from mTEC-KOs were analyzed by western blot using antibodies to E-cadherin and β-tubulin (J). Control epithelial cells were grown without TGF-β (Lane 3). The cells were then treated for an additional 48 hours with no inhibitor (Lane 2), single inhibitors (5 μM Y27632, Lane 6; 5 μM SB203580, Lane 7; 5 μM SB431542, Lane 8) or with the combination of 5 μM SB431542 with either 15 μM SP600125 (Lane 1), 5 μM Y27632 (Lane 4) or 5 μM SB203580 (Lane 5).
Cells were seeded on glass cover slips (Fisher) and cultured as described above. Cells were treated, fixed in 4% paraformaldehyde, and permeabilized in PBS containing 0.1% Triton X-100 for 10 min. Nonspecific sites were blocked with 10% BSA or normal goat serum for 30 min. […]

Oc1c2ccccc2c2c3c(cccc13)N=N2 [SP600125]
reversal of mesenchymal actin stress fiber morphology, single kinase inhibitor [1]: fail to reverse the mesenchymal actin cytoskeleton | E-cadherin at cell junctions (localization) [2]: did not restore E-cadherin

Reference: patent publication US20060234911A1, “Method of reversing epithelial mesenchymal transition” (priority 2005, published 2006)
